# No constants are given. Whether binding was seen depends on the method and setting. In cells and extracts the contact can be indirect. Some entries that bind do so weakly or less than the wild type. Sequences can lack the tags named with a protein.
# Amino acid sequences for entries named in this document (tags omitted).
# UniProt P11142: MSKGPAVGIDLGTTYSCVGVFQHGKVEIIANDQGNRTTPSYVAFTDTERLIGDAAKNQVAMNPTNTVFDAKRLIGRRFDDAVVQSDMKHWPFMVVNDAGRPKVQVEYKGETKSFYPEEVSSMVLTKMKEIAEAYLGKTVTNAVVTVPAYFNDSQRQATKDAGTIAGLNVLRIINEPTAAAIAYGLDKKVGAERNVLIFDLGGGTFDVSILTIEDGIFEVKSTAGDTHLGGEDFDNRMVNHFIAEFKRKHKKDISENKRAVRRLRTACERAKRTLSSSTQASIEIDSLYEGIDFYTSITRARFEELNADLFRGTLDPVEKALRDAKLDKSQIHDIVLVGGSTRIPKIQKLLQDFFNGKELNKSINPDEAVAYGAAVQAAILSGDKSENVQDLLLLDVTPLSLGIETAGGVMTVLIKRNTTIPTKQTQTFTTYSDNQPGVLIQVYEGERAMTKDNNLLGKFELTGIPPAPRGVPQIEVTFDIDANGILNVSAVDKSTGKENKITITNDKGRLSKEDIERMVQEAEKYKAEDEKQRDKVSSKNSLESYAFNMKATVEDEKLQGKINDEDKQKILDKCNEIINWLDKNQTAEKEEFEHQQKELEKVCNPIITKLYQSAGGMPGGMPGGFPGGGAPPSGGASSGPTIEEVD
# UniProt Q00610: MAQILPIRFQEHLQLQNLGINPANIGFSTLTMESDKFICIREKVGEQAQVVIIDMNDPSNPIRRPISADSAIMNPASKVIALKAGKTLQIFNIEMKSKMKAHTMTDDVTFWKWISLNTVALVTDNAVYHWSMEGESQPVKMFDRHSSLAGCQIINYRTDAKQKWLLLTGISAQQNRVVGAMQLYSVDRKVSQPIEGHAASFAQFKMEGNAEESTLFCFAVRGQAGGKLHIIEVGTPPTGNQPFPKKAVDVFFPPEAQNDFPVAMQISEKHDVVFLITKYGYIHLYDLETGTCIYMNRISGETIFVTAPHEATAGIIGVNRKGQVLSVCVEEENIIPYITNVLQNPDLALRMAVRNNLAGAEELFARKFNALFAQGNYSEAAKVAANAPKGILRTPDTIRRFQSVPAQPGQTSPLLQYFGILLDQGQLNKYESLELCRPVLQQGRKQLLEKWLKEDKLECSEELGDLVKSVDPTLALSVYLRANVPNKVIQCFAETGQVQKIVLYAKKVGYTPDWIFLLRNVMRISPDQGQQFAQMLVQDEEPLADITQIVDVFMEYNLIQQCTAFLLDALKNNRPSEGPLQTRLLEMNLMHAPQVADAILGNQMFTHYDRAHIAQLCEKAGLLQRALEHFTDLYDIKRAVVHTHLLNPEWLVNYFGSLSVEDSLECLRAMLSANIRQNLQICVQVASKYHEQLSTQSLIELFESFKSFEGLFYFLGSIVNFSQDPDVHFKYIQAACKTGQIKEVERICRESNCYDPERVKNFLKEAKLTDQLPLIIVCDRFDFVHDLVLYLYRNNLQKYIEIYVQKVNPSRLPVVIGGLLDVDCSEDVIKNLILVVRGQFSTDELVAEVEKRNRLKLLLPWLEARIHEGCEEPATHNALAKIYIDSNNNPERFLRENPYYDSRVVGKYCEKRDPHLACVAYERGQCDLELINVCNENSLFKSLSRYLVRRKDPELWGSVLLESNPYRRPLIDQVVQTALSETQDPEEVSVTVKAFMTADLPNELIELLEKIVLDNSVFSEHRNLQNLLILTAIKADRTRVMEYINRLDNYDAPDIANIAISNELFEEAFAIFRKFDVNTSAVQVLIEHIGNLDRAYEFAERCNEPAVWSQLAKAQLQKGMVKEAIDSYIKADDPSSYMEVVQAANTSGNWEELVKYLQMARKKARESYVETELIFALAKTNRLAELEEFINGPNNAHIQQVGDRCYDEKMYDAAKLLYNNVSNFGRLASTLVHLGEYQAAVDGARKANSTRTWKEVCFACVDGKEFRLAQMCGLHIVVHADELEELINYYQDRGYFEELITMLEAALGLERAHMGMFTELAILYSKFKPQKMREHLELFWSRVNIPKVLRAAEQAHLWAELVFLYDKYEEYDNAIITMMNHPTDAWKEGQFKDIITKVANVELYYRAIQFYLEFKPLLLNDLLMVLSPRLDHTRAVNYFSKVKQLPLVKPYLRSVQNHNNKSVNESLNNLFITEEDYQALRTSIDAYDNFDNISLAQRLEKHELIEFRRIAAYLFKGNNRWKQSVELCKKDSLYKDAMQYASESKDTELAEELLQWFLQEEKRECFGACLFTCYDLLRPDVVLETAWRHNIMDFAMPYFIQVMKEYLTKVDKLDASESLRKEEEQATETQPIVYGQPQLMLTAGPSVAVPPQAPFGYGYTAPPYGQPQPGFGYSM
# UniProt P21707: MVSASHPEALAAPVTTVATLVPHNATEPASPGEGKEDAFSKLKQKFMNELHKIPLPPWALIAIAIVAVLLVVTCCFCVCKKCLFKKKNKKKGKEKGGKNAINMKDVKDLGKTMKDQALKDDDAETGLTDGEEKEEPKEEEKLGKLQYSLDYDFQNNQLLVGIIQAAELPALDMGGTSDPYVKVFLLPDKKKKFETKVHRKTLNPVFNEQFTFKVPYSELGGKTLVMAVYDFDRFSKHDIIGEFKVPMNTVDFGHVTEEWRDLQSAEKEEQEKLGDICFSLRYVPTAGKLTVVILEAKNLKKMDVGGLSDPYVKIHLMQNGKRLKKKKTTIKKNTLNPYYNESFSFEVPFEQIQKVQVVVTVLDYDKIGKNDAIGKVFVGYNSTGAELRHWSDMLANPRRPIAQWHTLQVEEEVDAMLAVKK
# UniProt P11275: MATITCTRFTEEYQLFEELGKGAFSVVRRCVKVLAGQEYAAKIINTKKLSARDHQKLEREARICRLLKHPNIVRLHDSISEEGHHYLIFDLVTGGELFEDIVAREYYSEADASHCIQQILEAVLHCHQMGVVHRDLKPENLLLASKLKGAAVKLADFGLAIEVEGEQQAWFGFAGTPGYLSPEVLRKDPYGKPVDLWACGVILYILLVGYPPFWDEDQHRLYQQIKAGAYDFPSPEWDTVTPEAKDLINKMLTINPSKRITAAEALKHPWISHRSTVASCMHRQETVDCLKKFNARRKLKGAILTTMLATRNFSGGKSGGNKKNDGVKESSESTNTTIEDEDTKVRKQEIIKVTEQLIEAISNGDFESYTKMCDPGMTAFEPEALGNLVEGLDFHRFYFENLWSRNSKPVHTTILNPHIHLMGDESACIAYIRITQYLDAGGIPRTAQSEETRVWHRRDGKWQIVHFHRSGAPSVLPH
# T1: myc-DGKθ (UniProt P52824)
# T1 sequence: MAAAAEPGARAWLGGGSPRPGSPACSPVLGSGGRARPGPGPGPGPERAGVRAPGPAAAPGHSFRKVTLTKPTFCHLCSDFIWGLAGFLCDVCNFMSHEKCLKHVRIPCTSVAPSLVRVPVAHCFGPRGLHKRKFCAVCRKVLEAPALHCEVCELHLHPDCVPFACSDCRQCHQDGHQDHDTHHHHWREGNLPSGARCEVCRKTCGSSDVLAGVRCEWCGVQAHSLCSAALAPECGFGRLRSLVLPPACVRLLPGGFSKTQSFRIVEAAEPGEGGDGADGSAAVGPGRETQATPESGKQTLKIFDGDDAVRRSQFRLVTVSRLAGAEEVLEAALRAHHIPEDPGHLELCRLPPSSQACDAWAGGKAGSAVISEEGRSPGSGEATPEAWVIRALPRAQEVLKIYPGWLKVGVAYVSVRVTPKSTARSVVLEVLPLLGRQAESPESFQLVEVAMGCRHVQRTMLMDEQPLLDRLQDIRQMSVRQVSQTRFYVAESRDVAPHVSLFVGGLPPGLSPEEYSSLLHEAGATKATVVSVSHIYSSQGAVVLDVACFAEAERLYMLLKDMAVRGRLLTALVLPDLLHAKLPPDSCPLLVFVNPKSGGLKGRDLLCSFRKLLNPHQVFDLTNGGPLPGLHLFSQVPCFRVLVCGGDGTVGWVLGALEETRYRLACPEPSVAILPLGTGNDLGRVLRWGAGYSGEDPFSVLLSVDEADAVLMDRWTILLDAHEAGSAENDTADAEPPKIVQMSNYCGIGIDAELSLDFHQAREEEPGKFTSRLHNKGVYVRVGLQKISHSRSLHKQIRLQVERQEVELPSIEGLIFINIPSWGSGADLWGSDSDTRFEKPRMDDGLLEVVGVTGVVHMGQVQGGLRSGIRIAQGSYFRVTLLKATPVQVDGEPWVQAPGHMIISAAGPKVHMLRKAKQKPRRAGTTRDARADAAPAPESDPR
# Biological target: T1, myc-DGKθ
# Assay: co-IP; HEK293FT transfected with pRK5-myc-DGKθ alone or with each interactor's plasmid; lysis in 1% NP40, 5 mM NaF, 5 mM NaPPi, 1 mM EDTA, 1 mM EGTA in PBS; anti-myc antibody and protein A/G beads; Western blot for the interactor
row,binding,Molecule
1,binds,GFP-HSPA8 (from UniProt P11142 1-646)
2,no binding,HA-CLTC (from UniProt Q00610 1-1675)
3,binds,"Hsc70 (endogenous, HEK293FT) (from UniProt P11142 1-646)"
4,binds,Syt1-pH (from UniProt P21707 1-421)
5,binds,mGFP-Camk2a (from UniProt P11275 1-478)
6,binds,"Syngr1-GFP (protein, UniProt O43759 1-233) MEGGAYGAGKAGGAFDPYTLVRQPHTILRVVSWLFSIVVFGSIVNEGYLNSASEGEEFCIYNRNPNACSYGVAVGVLAFLTCLLYLALDVYFPQISSVKDRKKAVLSDIGVSAFWAFLWFVGFCYLANQWQVSKPKDNPLNEGTDAARAAIAFSFFSIFTWAGQAVLAFQRYQIGADSALFSQDYMDPSQDSSMPYAPYVEPTGPDPAGMGGTYQQPANTFDTEPQGYQSQGY"
7,binds,"HA-Stx7 (protein, UniProt O15400 1-261) MSYTPGVGGDPAQLAQRISSNIQKITQCSVEIQRTLNQLGTPQDSPELRQQLQQKQQYTNQLAKETDKYIKEFGSLPTTPSEQRQRKIQKDRLVAEFTTSLTNFQKVQRQAAEREKEFVARVRASSRVSGSFPEDSSKERNLVSWESQTQPQVQVQDEEITEDDLRLIHERESSIRQLEADIMDINEIFKDLGMMIHEQGDVIDSIEANVENAEVHVQQANQQLSRAADYQRKSRKTLCIIILILVIGVAIISLIIWGLNH"
8,binds,"HA-dynamin1 (protein, UniProt Q05193 1-864) MGNRGMEDLIPLVNRLQDAFSAIGQNADLDLPQIAVVGGQSAGKSSVLENFVGRDFLPRGSGIVTRRPLVLQLVNATTEYAEFLHCKGKKFTDFEEVRLEIEAETDRVTGTNKGISPVPINLRVYSPHVLNLTLVDLPGMTKVPVGDQPPDIEFQIRDMLMQFVTKENCLILAVSPANSDLANSDALKVAKEVDPQGQRTIGVITKLDLMDEGTDARDVLENKLLPLRRGYIGVVNRSQKDIDGKKDITAALAAERKFFLSHPSYRHLADRMGTPYLQKVLNQQLTNHIRDTLPGLRNKLQSQLLSIEKEVEEYKNFRPDDPARKTKALLQMVQQFAVDFEKRIEGSGDQIDTYELSGGARINRIFHERFPFELVKMEFDEKELRREISYAIKNIHGIRTGLFTPDMAFETIVKKQVKKIREPCLKCVDMVISELISTVRQCTKKLQQYPRLREEMERIVTTHIREREGRTKEQVMLLIDIELAYMNTNHEDFIGFANAQQRSNQMNKKKTSGNQDEILVIRKGWLTINNIGIMKGGSKEYWFVLTAENLSWYKDDEEKEKKYMLSVDNLKLRDVEKGFMSSKHIFALFNTEQRNVYKDYRQLELACETQEEVDSWKASFLRAGVYPERVGDKEKASETEENGSDSFMHSMDPQLERQVETIRNLVDSYMAIVNKTVRDLMPKTIMHLMINNTKEFIFSELLANLYSCGDQNTLMEESAEQAQRRDEMLRMYHALKEALSIIGDINTTTVSTPMPPPVDDSWLQVQSVPAGRRSPTSSPTPQRRAPAVPPARPGSRGPAPGPPPAGSALGGAPPVPSRPGASPDPFGPPPQVPSRPNRAPPGVPSRSGQASPSRPESPRPPFDL"
